Assay results published in PMC4457880.
Results are given in words; binding and its absence hold for the method and conditions named. In cells and extracts the contact can be indirect. Some results given as binding are weak or reduced against the parent protein; the word gives no strength.

The chains behind the UniProt entries cited, without tags or fusion partners.
UniProt Q15025: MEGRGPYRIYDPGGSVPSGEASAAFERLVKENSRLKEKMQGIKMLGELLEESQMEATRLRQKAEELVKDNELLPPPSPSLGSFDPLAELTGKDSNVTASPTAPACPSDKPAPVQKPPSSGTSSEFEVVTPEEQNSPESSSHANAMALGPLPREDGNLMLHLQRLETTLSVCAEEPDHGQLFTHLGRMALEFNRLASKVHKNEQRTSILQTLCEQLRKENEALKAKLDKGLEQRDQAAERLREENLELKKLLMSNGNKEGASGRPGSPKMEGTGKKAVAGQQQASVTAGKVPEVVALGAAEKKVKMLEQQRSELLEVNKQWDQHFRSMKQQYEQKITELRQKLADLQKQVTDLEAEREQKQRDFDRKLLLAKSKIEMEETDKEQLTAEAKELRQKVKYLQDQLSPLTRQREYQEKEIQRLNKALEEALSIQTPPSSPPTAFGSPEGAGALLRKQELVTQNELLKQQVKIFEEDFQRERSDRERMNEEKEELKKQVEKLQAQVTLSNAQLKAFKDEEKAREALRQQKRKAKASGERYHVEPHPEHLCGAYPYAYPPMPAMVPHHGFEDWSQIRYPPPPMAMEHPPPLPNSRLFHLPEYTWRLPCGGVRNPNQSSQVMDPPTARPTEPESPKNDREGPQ
UniProt P28482: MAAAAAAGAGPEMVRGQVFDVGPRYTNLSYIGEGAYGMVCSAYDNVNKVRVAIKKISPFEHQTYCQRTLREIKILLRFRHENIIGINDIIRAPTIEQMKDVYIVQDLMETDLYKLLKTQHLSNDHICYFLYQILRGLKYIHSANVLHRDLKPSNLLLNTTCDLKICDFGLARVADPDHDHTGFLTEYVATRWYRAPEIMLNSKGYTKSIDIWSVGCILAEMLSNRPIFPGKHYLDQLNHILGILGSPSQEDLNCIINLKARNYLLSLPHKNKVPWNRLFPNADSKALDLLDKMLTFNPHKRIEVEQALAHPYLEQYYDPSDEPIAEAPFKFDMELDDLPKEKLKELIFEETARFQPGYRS

Target: TNF-α–induced protein 3-interacting protein 1 (TNIP1) (human (endogenous in HaCaT)) (UniProt Q15025)
Experiment: co-IP; HaCaT cells lysed in ice-cold Pierce IP lysis buffer; TNIP1 complex precipitated with anti-TNIP1 antibody and detected with anti-Erk2 antibody, and the reverse; Protein A-Sepharose beads; naive IgG as negative control

extracellular signal-regulated kinase 2 (Erk2) (from UniProt P28482 1-360)
binding: binds
